Data: article PMC6389977
Results are given in words; binding and its absence hold for the method and conditions named. Some entries that bind do so weakly or less than the wild type.

Target: full-length DENV2 NS3 protein (bait, pGBKT7-NS3) (dengue virus 2, New Guinea C (NGC) strain) (UniProt P14340)
Assay: two-hybrid

B1: glioblastoma amplified sequence (protein, UniProt O75323-1 1-286)
chain: MAARVLRARGAAWAGGLLQRAAPCSLLPRLRTWTSSSNRSREDSWLKSLFVRKVDPRKDAHSNLLAKKETSNLYKLQFHNVKPECLEAYNKICQEVLPKIHEDKHYPCTLVGTWNTWYGEQDQAVHLWRYEGGYPALTEVMNKLRENKEFLEFRKARSDMLLSRKNQLLLEFSFWNEPVPRSGPNIYELRSYQLRPGTMIEWGNYWARAIRFRQDGNEAVGGFFSQIGQLYMVHHLWAYRDLQTREDIRNAAWHKHGWEELVYYTVPLIQEMESRIMIPLKTSPLQ
  binding: binds
